Assay results: patent US20030171278A1 (Genentech, published 2003)
Results are given in words; binding and its absence hold for the method and conditions named. Some results given as binding are weak or reduced against the parent protein; the word gives no strength. For part of these data: Sequences can lack the tags named with a protein.

Tests used:
[1] = molecular target: T1, HER2 extracellular domain (HER2-ECD) (human, UniProt P04626 23-652); assay: competition ELISA, block of 1.1.FI-Zb binding to immobilized HER2-ECD
T1 construct: extracellular domain; also called immobilized HER2; extracellular domain of Erb2

[2] = molecular target: HER2 expressed on cells (BT 474, MDA 361) (human) (UniProt P04626); assay: FACS, BT 474 and MDA 361 cells, 0, 0.5 or 5 µM 1.1.FI-Zb, streptavidin-PE
[3] = molecular target: HER2 expressed on cells (BT 474, MDA 361) (human) (UniProt P04626); assay: FACS on MDA 361, BT 474 and BaF3 cells (FIG. 13)

| binding [1] | binding [2] | binding [3] | Binder |
| --- | --- | --- | --- |
| binds | – | – | QVYESWGCIGPGCACLQACLGGGSSG (Fc fusion, not shown: a dimerising Fc or GST) [1.1FI-Fc] |
| – | binds | binds | QVYESWGCIGPGCACLQACL (biotinylated using NHS-LC-biotin (sites not given)) [1.1.FI-Zb (biotinylated 1.1.FI-Z)] |
